Experimental data published in patent US6613352B2, “Low-rigidity liposomal formulation” (Universite de Montreal, priority 1999, dated 2003).

System: Candida albicans, strain 7238
Assay: MIC of yeast strain
Type: cell-based
Description: Yeast respiratory infections are a major problem in immunocompromised patients. To evaluate the fungicide activity of the liposomal-amphotericin B formulation produced according to the present invention (DPPC/DMPG), in vitro tests were performed against Candida albicans, strain 7238, MIC=1 μg/ml. To culture tubes containing 22.5 ml of C. albicans cells (final cell concentration of 103/ml), 7.5 ml of RPMI medium 1640 containing liposome-amphotericin B (final concentration of 0.125 μg/ml), free amphotericin B (final concentration of 0.125 μg/ml), or control PBS were added at time zero. Experiments were done in triplicate. At times 0, 3, 6, 12, 24, and 36 hours following the addition of antibiotic or control, 1.5 ml samples were collected and serial 10 fold dilutions were made and spread in triplicate on proteose peptone agar plates. CFU were counted after 24 hour and 48 hour incubations ar 37° C. under CO2. Counts were expressed in log CFU per ml of culture media.

MIC: 1 µg/mL
Structure (SMILES): C[C@@H]1[C@H](O)[C@@H](C)/C=C/C=C/C=C/C=C/C=C/C=C/C=C/[C@H](O[C@@H]2O[C@H](C)[C@@H](O)[C@H](N)[C@@H]2O)C[C@@H]2O[C@](O)(C[C@@H](O)C[C@@H](O)[C@H](O)CC[C@@H](O)C[C@@H](O)CC(=O)O[C@H]1C)C[C@H](O)[C@H]2C(=O)O [amphotericin B]
